{
  "source": "PubChem BioAssay AID504834",
  "about": "(National Center for Advancing Translational Sciences (NCATS), 2011)",
  "note": "The campaign covered roughly 320,000 compounds. About 22,000 (6.9%) were called active. Inconclusive means that the source gave no clear call. Such entries were picked first, then a sample of the others. Calls come from the whole dose curve; as a rule, active = well fitted inhibition curve with a large enough effect; inconclusive = small, poorly fitted or top-dose-only effect, or another doubt; inactive = no such curve, though single readings can be large or run the other way. Potencies of inconclusive entries are doubtful fits and often do not repeat. % is set by controls: 0 for no effect and ±100 for the full control effect; potency is the fitted concentration of half-maximal effect.",
  "data": [
    {"assay": "Primary qHTS for delayed death inhibitors of the malarial parasite plastid, 96 hour incubation", "details": "P. falciparum luciferase reporter growth; series mostly up to 28.7 µM", "method_in_brief": "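Erythrocytes infected with luciferase-expressing P. falciparum were dispensed at 2% hematocrit and 0.05% parasitemia (final), then incubated with compounds 96 hours at 37 C in 5% CO2. Luminescence after detection reagent addition reported growth.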", "values": [
      {"compound": "Cc1ccccc1NC(=O)Cc1nc(COC(=O)COc2ccc(C(C)(C)C)cc2)cs1", "Potency": "inconclusive: 18.5 µM [inhibitor, single point]"},
      {"compound": "O=c1c2nnn(-c3ccc(Br)cc3)c2ncn1Cc1ccccn1", "Potency": "inactive"},
      {"compound": "CC(NC(=O)NC(=O)c1cccc([N+](=O)[O-])c1)C1CC1", "note": "(configuration not stated)", "Potency": "inactive"},
      {"compound": "COc1ccc2[nH]c(C(=O)N/N=C/c3ccccc3OC)cc2c1", "Potency": "inconclusive: 18.5 µM [inhibitor, single point]"},
      {"compound": "Cc1cc(N/N=C/c2ccc(O)cc2O)nc(-c2ccccc2O)n1", "Potency": "inconclusive: 11.7 µM [inhibitor, single point]"},
      {"compound": "CCN(CC(=O)NCc1cccs1)CC(=O)Nc1ccccc1C", "Potency": "inconclusive: 0.0928 µM [inhibitor, full curve]"},
      {"compound": "CCC(CC)C(=O)c1c[nH]c(C(=O)O)c1", "Potency": "inconclusive: 0.329 µM [inhibitor, partial curve, poor fit]"},
      {"compound": "CC1CCc2c(nc3sc4c(c3c2N)CCCC4)C1", "note": "(configuration not stated)", "Potency": "inconclusive: 11.7 µM [inhibitor, partial curve, poor fit]"},
      {"compound": "Cc1ccc(NC(=O)CN(Cc2ccco2)Cc2ccccc2O)cc1C", "Potency": "inconclusive: 4.15 µM [inhibitor, partial curve]"},
      {"compound": "Cc1nc(N)nc(Nc2ccc(Cl)cc2)c1Br", "Potency": "inconclusive: 18.5 µM [inhibitor, single point]"},
      {"compound": "CC1CCCCN1S(=O)(=O)c1ccc([N+](=O)[O-])cc1", "note": "(configuration not stated)", "Potency": "inconclusive: 18.5 µM [inhibitor, single point]"},
      {"compound": "COc1ccc(-c2cc3nc(C)c(CCC(=O)NCc4ccco4)c(C)n3n2)c(OC)c1", "Potency": "inactive"},
      {"compound": "CC(C)Cc1nnc(NC(=O)CN2C(=O)c3ccccc3C2=O)s1", "Potency": "inconclusive: 11.7 µM [inhibitor, single point]"},
      {"compound": "CC(C)c1ccc(NC(=O)CSc2nc3c(c(=O)[nH]2)CCC3)cc1", "Potency": "inactive"},
      {"compound": "O=C(Nc1ccccc1N1CCCCC1)c1ccc(F)c(S(=O)(=O)N2CCOCC2)c1", "Potency": "inconclusive: 5.22 µM [inhibitor, partial curve]"},
      {"compound": "CN(C)c1ccc(N/C(N)=N/c2nc(C(F)(F)F)cc(C(F)(F)F)n2)cc1", "Potency": "inconclusive: 10.4 µM [inhibitor, single point]"},
      {"compound": "CCN(CC)CCn1c(NCc2ccc3c(c2)OCO3)nc2ccccc21", "Potency": "inconclusive: 18.5 µM [inhibitor, single point]"},
      {"compound": "CC1(C)CC(=O)C(C2=NC3(CCCCCC3)Cc3ccccc32)=C(O)C1", "Potency": "inconclusive: 16.5 µM [inhibitor, single point]"},
      {"compound": "CCn1cc([N+](=O)[O-])c(C(=O)Nc2cc(C)on2)n1", "Potency": "inconclusive: 4.15 µM [inhibitor, single point]"},
      {"compound": "COc1ccc(C(=O)CSc2nnc(COc3ccccc3)n2Cc2ccco2)cc1", "Potency": "inconclusive: 18.5 µM [inhibitor, single point]"},
      {"compound": "Cc1ccc(S(=O)(=O)N2[C@@H](c3ccc(F)cc3)C(C(=O)O)=CC[C@H]2c2cccc(C)c2)cc1", "Potency": "inconclusive: 18.5 µM [inhibitor, single point]"},
      {"compound": "COc1ccc2c(c1)C1C=CCC1C(c1cc3c(cc1Br)OCO3)N2", "note": "(configuration not stated)", "Potency": "inconclusive: 18.5 µM [inhibitor, single point]"},
      {"compound": "COc1ccc(NS(=O)(=O)c2cccc(N/C(=N\\S(=O)(=O)c3ccccc3)c3ccc(F)cc3)c2)cc1", "Potency": "inconclusive: 16.5 µM [inhibitor, partial curve, poor fit]"},
      {"compound": "CC(C)C1Nc2c(O)cc(Cl)c([N+](=O)[O-])c2C2C=CCC21", "note": "(configuration not stated)", "Potency": "inactive"},
      {"compound": "CN(C)c1nc(Nc2ccc(Cl)cc2)nc(OCC#N)n1", "Potency": "inconclusive: 0.0657 µM [inhibitor, full curve, poor fit]"},
      {"compound": "CN1c2ccc([N+](=O)[O-])cc2CC2(C(=O)NC(=O)N(c3ccc(Br)cc3)C2=O)C1c1ccccc1", "note": "(configuration not stated)", "Potency": "inconclusive: 1.31 µM [inhibitor, partial curve]"},
      {"compound": "CC(=O)c1ccc(NC(=O)C(C)N(C)CC(=O)Nc2ccc(Cl)cc2)cc1", "note": "(configuration not stated)", "Potency": "inconclusive: 16.5 µM [inhibitor, single point]"},
      {"compound": "Cn1cc(CN2CCCCC2CO)c(-c2ccc(Oc3ccccc3)cc2)n1", "note": "(configuration not stated)", "Potency": "inactive"},
      {"compound": "Cc1ccc(C(CCN(Cc2ccccc2)C(=O)c2ccco2)c2ccco2)cc1", "note": "(configuration not stated)", "Potency": "active: 13.1 µM"},
      {"compound": "c1ccc(-c2cc3c(N4CCOCC4)ncnc3s2)cc1", "Potency": "inactive"},
      {"compound": "COc1ccc(NC(=S)N2CCCN(Cc3cc(C)ccc3C)C2)cc1", "Potency": "inconclusive: 11.7 µM [inhibitor, single point]"},
      {"compound": "COc1cc2nc(CN3CCN(S(=O)(=O)c4ccc(C)c(C)c4)CC3)[nH]c(=O)c2cc1OC", "Potency": "inconclusive: 16.5 µM [inhibitor, partial curve, poor fit]"},
      {"compound": "CCOC(=O)N1CCN(C(=O)C2CCN(C(=O)c3cc4sccc4n3CC)CC2)CC1", "Potency": "inconclusive: 4.15 µM [inhibitor, partial curve, poor fit]"},
      {"compound": "Cc1cc(C(=O)CS(=O)(=O)c2ccc(F)cc2)cc(C)c1OC(=O)N(C)C", "Potency": "inactive"},
      {"compound": "COc1ccccc1NC(=O)c1ccccc1Nc1ccccc1", "Potency": "inconclusive: 0.828 µM [inhibitor, partial curve, poor fit]"},
      {"compound": "CC(=O)c1ccc(NC(=O)c2ccc(S(=O)(=O)N3CCCC3)cc2)cc1", "Potency": "inconclusive: 1.04 µM [inhibitor, partial curve, poor fit]"},
      {"compound": "O=C(Nc1cccc(O)c1)c1ccc(NC(=O)C2CCCO2)cc1", "note": "(configuration not stated)", "Potency": "inactive"},
      {"compound": "CCC(NC(C)C)C(O)c1ccc(O)c2[nH]c(=O)ccc12", "note": "(configuration not stated)", "Potency": "inactive"},
      {"compound": "COc1ccccc1CNC(=O)CCNS(=O)(=O)c1ccc2[nH]c(=O)oc2c1", "Potency": "inactive"},
      {"compound": "COc1ccc(-c2nc(C#N)c(NCc3ccco3)o2)cc1", "Potency": "inactive"},
      {"compound": "Cc1ccc(S(=O)(=O)NC(=O)N(CCC#N)Cc2ccccc2)cc1", "Potency": "inactive"},
      {"compound": "CC(C)CN(C(=O)c1cc(Cl)nc2ccccc12)C1CCS(=O)(=O)C1", "note": "(configuration not stated)", "Potency": "inactive"},
      {"compound": "CCC(C)c1ccc(NC(=S)NC(C)C2CCCO2)cc1", "note": "(configuration not stated)", "Potency": "inconclusive: 9.28 µM [inhibitor, single point]"},
      {"compound": "CCCn1c(SCC(=O)Nc2ccccc2Cl)nc(O)cc1=O", "Potency": "inconclusive: 10.4 µM [inhibitor, single point]"},
      {"compound": "CC[C@@]12C(=O)N(c3cccc(F)c3)C(=O)N1[C@H](c1cccc(C)c1)[C@@H]1C(=O)N(Cc3ccccc3)C(=O)[C@@H]12", "Potency": "inconclusive: 18.5 µM [inhibitor, single point]"},
      {"compound": "O=C(NCc1ccc2c(c1)OCO2)C1CCN(S(=O)(=O)c2ccc(F)cc2)CC1", "Potency": "inconclusive: 18.5 µM [inhibitor, single point]"},
      {"compound": "O=C(CN1CCCCC1)N/N=C/c1ccccc1Br", "Potency": "inconclusive: 18.5 µM [inhibitor, single point]"},
      {"compound": "COc1ccc([N+](=O)[O-])cc1NC(=O)Cc1ccccc1Cl", "Potency": "inconclusive: 5.22 µM [inhibitor, partial curve, poor fit]"},
      {"compound": "COC(=O)C1=C(c2ccc(F)cc2F)C[C@@H]2CC[C@H]1N2C(=O)N1CCC(O)CC1", "Potency": "inconclusive: 10.4 µM [inhibitor, single point]"},
      {"compound": "N#Cc1nc(COc2ccc(Cl)cc2Cl)oc1N1CCN(c2ccccc2)CC1", "Potency": "inconclusive: 18.5 µM [inhibitor, single point]"},
      {"compound": "Cc1c(NC(=S)NC(=O)C2CCCCC2)c(=O)n(-c2ccccc2)n1C", "Potency": "inconclusive: 0.828 µM [inhibitor, partial curve, poor fit]"},
      {"compound": "COc1ccc(S(=O)(=O)N2CN(CCc3ccc(OC)c(OC)c3)c3nc4ccccc4nc32)cc1", "Potency": "inconclusive: 11.7 µM [inhibitor, partial curve, poor fit]"},
      {"compound": "N#Cc1ccc(S(=O)(=O)N2CCN(c3ncccn3)CC2)cc1", "Potency": "inconclusive: 4.15 µM [inhibitor, single point]"},
      {"compound": "CN(Cc1cc2ccccc2[nH]c1=O)C(=O)c1cccs1", "Potency": "inconclusive: 18.5 µM [inhibitor, single point]"},
      {"compound": "COC(=O)c1ccc(NC(=O)C[n+]2ccccc2C)cc1", "Potency": "inactive"},
      {"compound": "CCCCOc1ccc(-c2cnc3ccccc3n2)cc1", "Potency": "inconclusive: 18.5 µM [inhibitor, partial curve, poor fit]"},
      {"compound": "Nc1cccc2[nH]c(C(F)(F)F)nc12", "Potency": "inconclusive: 13.1 µM [inhibitor, single point]"},
      {"compound": "CCCCNC(=O)c1onc(CS(=O)(=O)c2ccccn2)c1C(=O)NCCCC", "Potency": "active: 14.7 µM"},
      {"compound": "COc1cccc(NC(=O)C2CCCN2C(=O)Nc2ccccc2)c1", "note": "(configuration not stated)", "Potency": "inconclusive: 8.28 µM [inhibitor, partial curve]"},
      {"compound": "Cc1ccc(NC(=O)CSCC(=O)NCCc2ccccc2)c(C)c1", "Potency": "inconclusive: 2.08 µM [inhibitor, full curve]"},
      {"compound": "O=C(/C=C/c1ccco1)Nc1ccccc1N1CCCCC1", "activity change, negative = inhibition": "inactive: 32.9% [at 1.15 µM]"},
      {"compound": "CC1NC(=O)NC1CCCCCC(=O)Nc1ccc(F)c(Cl)c1", "note": "(configuration not stated)", "Potency": "inconclusive: 11.7 µM [inhibitor, single point]"},
      {"compound": "Cc1noc(C)c1S(=O)(=O)NC1CCN(Cc2ccccc2)CC1", "Potency": "inconclusive: 11.7 µM [inhibitor, single point]"},
      {"compound": "O=C(O)c1ccc(N/N=C/c2ccc(OC(=O)c3ccccc3Cl)cc2)cc1", "Potency": "inactive"},
      {"compound": "CC(C(=O)Nc1nncs1)N1C(=O)C2C3C=CC(C3)C2C1=O", "note": "(configuration not stated)", "Potency": "inconclusive: 1.17 µM [inhibitor, full curve]"},
      {"compound": "Cc1cc(C)n(CCNC(=O)C2CCC(=O)N(Cc3ccc(Cl)cc3)C2)n1", "note": "(configuration not stated)", "Potency": "inactive"},
      {"compound": "COc1ccc(-c2csc(N(CCCN(C)C)C(=O)c3ccc(C)cc3)n2)cc1", "Potency": "inconclusive: 0.0262 µM [inhibitor, full curve, poor fit]"}
    ]}
  ]
}
